{"source": "patent US4888357A", "about": "“Antiarthritic β-cycloalkyl-β-oxopropionitriles” (Bristol-Myers Company, priority 1988, dated 1989)", "test_system": "adjuvant-induced polyarthritis (hind paw volume)", "experiment": "Modified developing adjuvant arthritis in rats (adjuvant-induced polyarthritis, AIP)", "type": "in vivo, male Lewis rats", "conditions": "once daily p.o.; for AIP Inhib. score (% Inhibition of paw edema) d. 20-22: read d. 20-22; for AIP Inhib. score (% Inhibition of paw edema) d. 40-42: read d. 40-42", "experimental": "A. Modified Developing Adjuvant Arthritis in Rats\nThis test is based on the procedure originally described by Pearson (Proc. Soc. Biol. Med., 1956, pp 91-5). Each experimental group used six male Lewis rats weighing approx. 250 gm. Arthritis was produced by a single intradermal injection of Mycobacterium butyricum (0.6 mg in 0.1 ml mineral oil) into the base of the tail. Test compounds were administered orally, once daily, starting on the day of inoculation (day 1) through day 8. The initial dosage was reduced during this period when side effects were observed. The paw volume (average of two hind paws) was measured by the merccury displacement method at least twice weekly during the course of the experiment (40 to 42 days). The efficacy of a compound was expressed as the percent reduction of hind paw volume of treated vs. untreated rats using the following equation: [formula]\n^a once daily, p.o., from d. 1-8 (unless otherwise specified).\n^b % Inhibition of paw edema: 0 = <25; + = 25- <40; ++ = 40-<60; +++", "key": {"[1]": {"conditions": "100 mg/kg (d. 1-2), 50 mg/kg (d. 3-8)"}, "[2]": {"conditions": "95 mg/kg (d. 1-2), 50 mg/kg (d. 3-8)"}, "[3]": {"conditions": "100 mg/kg (d. 1-4), 50 mg/kg (d. 5-8)"}, "[4]": {"conditions": "100 mg/kg (d. 1-3), 50 mg/kg (d. 4)"}}, "note": "The name of at least one read-out is uncertain.", "data": [{"smiles": "CC(C)(C)NC(=O)C(C#N)C(=O)C1CC1", "note": "(stereo not drawn) [Example 2, α-tert-Butylcaarbamoyl-β-cyclopropyl-β-oxopropionitrile]", "values": [{"measurement": "AIP Inhib. score (% Inhibition of paw edema) d. 20-22", "setting": "[1]", "result": "++ (++ = 40-<60)"}, {"measurement": "AIP Inhib. score (% Inhibition of paw edema) d. 40-42", "setting": "[1]", "result": "+++ (+++ 60-<80)"}]}, {"smiles": "CC(=O)C(C#N)C(=O)C1CC1", "note": "(stereo not drawn) [Example 5, α-Acetyl-β-cyclopropyl-β-oxopropionitrile]", "values": [{"measurement": "AIP Inhib. score (% Inhibition of paw edema) d. 20-22", "setting": "[2]", "result": "++ (++ = 40-<60)"}, {"measurement": "AIP Inhib. score (% Inhibition of paw edema) d. 40-42", "setting": "[2]", "result": "++ (++ = 40-<60)"}]}, {"smiles": "C=CCNC(=O)C(C#N)C(=O)C1CC1", "note": "(stereo not drawn) [Example 8, α-Allylcarbamoyl-β-cyclopropyl-β-oxopropionitrile]", "values": [{"measurement": "AIP Inhib. score (% Inhibition of paw edema) d. 20-22", "setting": "[3]", "result": "0 (0 = <25)"}, {"measurement": "AIP Inhib. score (% Inhibition of paw edema) d. 40-42", "setting": "[3]", "result": "0 (0 = <25)"}]}, {"smiles": "N#CC(C(=O)NC1CC1)C(=O)C1CC1", "note": "(stereo not drawn) [Example 9, α-Cyclopropylcarbamoyl-β-cyclopropyl-β-oxopropionitrile]", "values": [{"measurement": "AIP Inhib. score (% Inhibition of paw edema) d. 20-22", "setting": "[4]", "result": "+ (+ = 25- <40)"}, {"measurement": "AIP Inhib. score (% Inhibition of paw edema) d. 40-42", "setting": "[4]", "result": "++ (++ = 40-<60)"}]}]}
